Data from US8461181B2, “Fused heterocyclic compound and use thereof” (Sumitomo Chemical Company, Ltd., priority 2009, dated 2013).
Some results were stated once for a whole list of compounds, not compound by compound.

What follows are molecules tested on Aphis gossypii (assay: Test Example 1: spray on cucumber seedling inoculated with Aphis gossypii). Details: 500 ppm, 10 ml sprayed on cucumber seedling inoculated with about 30 Aphis gossypii; five days after spraying.
Format: in vivo
Method: The formulations of the present active compounds (1) to (15), (17) to (25), (27) to (56), (101) to (103), (105) to (108), (117), (118), (121) to (130), (133) to (144), (147), (148), (152) to (156), (202), (204) to (206), (208), (209), (211) to (213), and (216) to (221) obtained by Formulation Example 5 were diluted with water so that the active ingredient concentration was 500 ppm, to prepare spray solutions for test. Separately, a cucumber seedling (second true leaf spreading stage) planted on a plastic cup was inoculated with about 30 Aphis gossypii, and left for 1 day. The above-described diluted solutions were sprayed each in an amount of 10 ml on this seedling. Five days after spraying, the number of insect of living Aphis gossypii […] on the leaves of this cucumber was checked, and the control value was calculated according to the following formula. Control value (%)={1-(Cb×Tai)/(Cai×Tb)}×100 Letters in the formula represent the following meanings. Cb: the number of insect before treatment on non-treated district Cai: the number of insect in observation on non-treated district Tb: the number of insect before treatment on treated district Tai: the number of insect in observation on treated district

Compound | control value [%]
CNS(=O)(=O)c1cnccc1-c1nc2cc(C(F)(F)F)cnc2n1C [present active compound 117] | ≥ 90
Cn1c(-c2ccncc2C#N)nc2cc(C(F)(F)F)cnc21 [present active compound 118] | ≥ 90
COCCSc1cnccc1-c1nc2cc(C(F)(F)F)cnc2n1C [present active compound 147] | ≥ 90
CC(C)Cn1c(-c2ccncc2)nc2cc(C(F)(F)F)ccc21 [present active compound 202, 1-isobutyl-2-pyridin-4-yl-5-trifluoromethyl-1H-benzimidazole] | ≥ 90
C=C(CF)Oc1cnccc1-c1nc2cc(C(F)(F)F)ccc2n1C [present active compound 209, 2-[3-(1-fluoromethyl-vinyloxy)-pyridin-4-yl-]-1-methyl-5-trifluoromethyl-1H-benzimidazole] | ≥ 90

These molecules were tested on Nilaparvata lugens (assay: Test Example 6: spray on rice seedling, 30 first instar larvae of Nilaparvata lugens). Details: 500 ppm, 10 ml sprayed on rice seedling; 30 first instar larvae released; 6 days at 25° C.
Format: in vivo

Compound | control value [%]
CCSc1cnccc1-c1nc2cc(C(F)(F)F)ccc2n1C [present active compound 20, 2-(3-ethylthiopyridin-4-yl)-1-methyl-5-trifluoromethyl-1H-benzimidazole] | ≥ 90
CC(C)Sc1cnccc1-c1nc2cc(C(F)(F)F)ccc2n1C [present active compound 23, 2-(3-isopropylthiopyridin-4-yl)-1-methyl-5-trifluoromethyl-1H-benzimidazole] | ≥ 90
Cn1c(-c2ccnc(Cl)c2)nc2cc(C(F)(F)F)ccc21 [present active compound 27, 2-(2-chloropyridin-4-yl)-1-methyl-5-trifluoromethyl-1H-benzimidazole] | ≥ 90
CSc1cnccc1-c1nc2cc(C(F)(F)F)cnc2n1C [present active compound 48, 3-methyl-2-(3-methylthiopyridin-4-yl)-6-trifluoromethyl-3H-imidazo[4,5-b]pyridine] | ≥ 90
Cn1c(-c2ccncc2[S+](C)[O-])nc2cc(C(F)(F)F)cnc21 (stereo not drawn) [present active compound 49, 2-(3-methanesulfinylpyridin-4-yl)-3-methyl-6-trifluoromethyl-3H-imidazo[4,5-b]pyridine] | ≥ 90
CCSc1cnccc1-c1nc2cc(C(F)(F)F)cnc2n1C [present active compound 51, 2-(3-ethylthiopyridin-4-yl)-3-methyl-6-trifluoromethyl-3H-imidazo[4,5-b]pyridine] | ≥ 90
CCCCOc1cnccc1-c1nc2cc(C(F)(F)F)ccc2n1C [present active compound 206, 2-(3-butoxypyridin-4-yl-)-1-methyl-5-trifluoromethyl-1H-benzimidazole] | ≥ 90
